No constants are given. Whether binding was seen depends on the method and setting. In cells and extracts the contact can be indirect. Some results given as binding are weak or reduced against the parent protein; the word gives no strength.
Target: HIF-1α (human (endogenous in Hep3B)), Q16665
Assay: co-IP; endogenous proteins; cytoplasmic fraction (1250 µg) of Hep3B cells treated with 125 µM DMOG for 5 hours; antibody against SIRT1 or HIF-1α or control IgG1 overnight at 4°C, Protein G magnetic microbeads; Western blot
Conditions: remark: other sources report otherwise

B1: SIRT1, Q96EB6-1 1-747 (protein)
chain: MADEAALALQPGGSPSAAGADREAASSPAGEPLRKRPRRDGPGLERSPGEPGGAAPEREVPAAARGCPGAAAAALWREAEAEAAAAGGEQEAQATAAAGEGDNGPGLQGPSREPPLADNLYDEDDDDEGEEEEEAAAAAIGYRDNLLFGDEIITNGFHSCESDEEDRASHASSSDWTPRPRIGPYTFVQQHLMIGTDPRTILKDLLPETIPPPELDDMTLWQIVINILSEPPKRKKRKDINTIEDAVKLLQECKKIIVLTGAGVSVSCGIPDFRSRDGIYARLAVDFPDLPDPQAMFDIEYFRKDPRPFFKFAKEIYPGQFQPSLCHKFIALSDKEGKLLRNYTQNIDTLEQVAGIQRIIQCHGSFATASCLICKYKVDCEAVRGDIFNQVVPRCPRCPADEPLAIMKPEIVFFGENLPEQFHRAMKYDKDEVDLLIVIGSSLKVRPVALIPSSIPHEVPQILINREPLPHLHFDVELLGDCDVIINELCHRLGGEYAKLCCNPVKLSEITEKPPRTQKELAYLSELPPTPLHVSEDSSSPERTSPPDSSVIVTLLDQAAKSNDDLDVSESKGCMEEKPQEVQTSRNVESIAEQMENPDLKNVGSSTGEKNERTSVAGTVRKCWPNRVAKEQISRRLDGNQYLFLPPNRYIFHGAEVYSDSEDDVLSSSSCGSNSDSGTCQSPSLEEPMEDESEIEEFYNGLEDEPDVPERAGGAGFGTDGDDQEAINEAISVKQEVTDMNYPSNKS
Q: For B1, which binding is on record?
A: binds
